Chains of the proteins cited; added tags and fusions are not shown. Lines headed by an entry give the natural chain unless they say otherwise; changes in a name come on top.
UniProt Q04837: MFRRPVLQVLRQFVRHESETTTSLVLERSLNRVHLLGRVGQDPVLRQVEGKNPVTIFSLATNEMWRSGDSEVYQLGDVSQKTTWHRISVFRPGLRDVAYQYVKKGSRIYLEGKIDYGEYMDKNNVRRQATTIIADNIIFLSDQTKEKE
UniProt Q9HBM1: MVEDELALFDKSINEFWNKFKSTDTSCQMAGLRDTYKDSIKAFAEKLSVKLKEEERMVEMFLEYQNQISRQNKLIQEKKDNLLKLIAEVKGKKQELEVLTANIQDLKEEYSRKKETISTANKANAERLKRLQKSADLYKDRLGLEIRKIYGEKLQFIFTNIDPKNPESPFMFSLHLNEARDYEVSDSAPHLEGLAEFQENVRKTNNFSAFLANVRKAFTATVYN
UniProt P43307: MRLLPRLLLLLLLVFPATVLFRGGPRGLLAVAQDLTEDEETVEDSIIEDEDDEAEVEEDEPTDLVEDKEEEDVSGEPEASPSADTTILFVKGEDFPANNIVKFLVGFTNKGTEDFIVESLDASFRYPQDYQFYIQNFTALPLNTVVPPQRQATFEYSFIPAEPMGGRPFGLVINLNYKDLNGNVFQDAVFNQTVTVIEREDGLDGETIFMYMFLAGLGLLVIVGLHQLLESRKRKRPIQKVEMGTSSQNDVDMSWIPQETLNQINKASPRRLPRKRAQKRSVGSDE
UniProt Q9BXP5: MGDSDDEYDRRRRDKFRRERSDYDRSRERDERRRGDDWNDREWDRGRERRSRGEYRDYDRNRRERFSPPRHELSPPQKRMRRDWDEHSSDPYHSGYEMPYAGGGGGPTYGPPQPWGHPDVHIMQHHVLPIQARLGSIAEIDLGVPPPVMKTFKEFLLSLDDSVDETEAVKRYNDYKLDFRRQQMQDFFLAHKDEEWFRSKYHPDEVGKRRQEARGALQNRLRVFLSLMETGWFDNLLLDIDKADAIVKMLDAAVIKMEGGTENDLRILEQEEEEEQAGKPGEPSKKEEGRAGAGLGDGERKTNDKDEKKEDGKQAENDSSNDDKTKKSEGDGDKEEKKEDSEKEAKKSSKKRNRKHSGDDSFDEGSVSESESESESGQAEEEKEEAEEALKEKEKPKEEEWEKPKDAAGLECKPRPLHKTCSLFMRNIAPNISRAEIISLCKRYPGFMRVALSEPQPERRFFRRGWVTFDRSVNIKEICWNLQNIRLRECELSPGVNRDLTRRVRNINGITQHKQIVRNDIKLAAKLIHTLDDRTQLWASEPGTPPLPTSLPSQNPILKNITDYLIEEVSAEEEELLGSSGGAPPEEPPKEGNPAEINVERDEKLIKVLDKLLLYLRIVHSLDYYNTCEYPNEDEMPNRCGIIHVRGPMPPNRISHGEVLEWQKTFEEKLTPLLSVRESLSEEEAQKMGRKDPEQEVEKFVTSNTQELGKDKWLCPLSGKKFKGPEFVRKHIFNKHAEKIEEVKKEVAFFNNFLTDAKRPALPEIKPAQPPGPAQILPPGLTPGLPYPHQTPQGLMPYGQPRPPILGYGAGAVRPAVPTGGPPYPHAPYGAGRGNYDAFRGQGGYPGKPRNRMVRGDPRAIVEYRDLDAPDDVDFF
UniProt P49458: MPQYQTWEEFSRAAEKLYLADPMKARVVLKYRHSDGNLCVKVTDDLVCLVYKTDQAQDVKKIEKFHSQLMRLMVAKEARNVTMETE
UniProt P10124: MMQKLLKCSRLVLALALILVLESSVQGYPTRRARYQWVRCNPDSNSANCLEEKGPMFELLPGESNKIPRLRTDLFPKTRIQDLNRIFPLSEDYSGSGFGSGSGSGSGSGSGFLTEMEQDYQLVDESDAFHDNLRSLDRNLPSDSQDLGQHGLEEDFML
UniProt P09132: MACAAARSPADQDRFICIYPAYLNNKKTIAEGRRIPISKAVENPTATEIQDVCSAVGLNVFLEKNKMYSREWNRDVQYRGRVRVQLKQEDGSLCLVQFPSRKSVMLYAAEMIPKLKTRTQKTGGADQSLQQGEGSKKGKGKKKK
UniProt Q8NBT2: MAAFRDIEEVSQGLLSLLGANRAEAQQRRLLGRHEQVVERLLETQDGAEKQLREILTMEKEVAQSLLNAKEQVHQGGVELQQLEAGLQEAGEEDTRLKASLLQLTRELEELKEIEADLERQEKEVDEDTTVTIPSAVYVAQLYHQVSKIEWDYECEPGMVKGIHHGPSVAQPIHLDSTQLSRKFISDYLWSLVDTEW
UniProt Q13243: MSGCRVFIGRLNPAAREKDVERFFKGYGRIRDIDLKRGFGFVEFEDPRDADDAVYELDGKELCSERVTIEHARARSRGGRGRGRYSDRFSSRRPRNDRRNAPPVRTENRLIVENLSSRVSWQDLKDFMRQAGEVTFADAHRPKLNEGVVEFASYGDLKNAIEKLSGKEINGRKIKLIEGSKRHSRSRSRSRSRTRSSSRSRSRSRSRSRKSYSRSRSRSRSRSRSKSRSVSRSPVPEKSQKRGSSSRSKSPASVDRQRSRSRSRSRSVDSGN
UniProt P31948, whole entry, looked up: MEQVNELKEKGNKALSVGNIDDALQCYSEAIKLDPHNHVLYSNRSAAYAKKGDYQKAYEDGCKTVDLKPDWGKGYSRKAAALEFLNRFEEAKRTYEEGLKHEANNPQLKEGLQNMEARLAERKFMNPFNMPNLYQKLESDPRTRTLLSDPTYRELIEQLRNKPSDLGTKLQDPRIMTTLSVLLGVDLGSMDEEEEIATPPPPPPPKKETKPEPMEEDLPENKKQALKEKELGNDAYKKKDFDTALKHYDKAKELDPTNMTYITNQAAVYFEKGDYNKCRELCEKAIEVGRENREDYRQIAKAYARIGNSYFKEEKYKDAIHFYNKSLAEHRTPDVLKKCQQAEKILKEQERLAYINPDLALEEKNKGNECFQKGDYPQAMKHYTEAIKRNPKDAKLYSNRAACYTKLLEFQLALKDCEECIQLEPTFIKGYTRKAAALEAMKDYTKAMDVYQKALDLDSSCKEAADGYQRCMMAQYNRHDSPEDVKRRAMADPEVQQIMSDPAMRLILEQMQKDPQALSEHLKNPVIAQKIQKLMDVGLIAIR
UniProt P11277, whole entry, looked up: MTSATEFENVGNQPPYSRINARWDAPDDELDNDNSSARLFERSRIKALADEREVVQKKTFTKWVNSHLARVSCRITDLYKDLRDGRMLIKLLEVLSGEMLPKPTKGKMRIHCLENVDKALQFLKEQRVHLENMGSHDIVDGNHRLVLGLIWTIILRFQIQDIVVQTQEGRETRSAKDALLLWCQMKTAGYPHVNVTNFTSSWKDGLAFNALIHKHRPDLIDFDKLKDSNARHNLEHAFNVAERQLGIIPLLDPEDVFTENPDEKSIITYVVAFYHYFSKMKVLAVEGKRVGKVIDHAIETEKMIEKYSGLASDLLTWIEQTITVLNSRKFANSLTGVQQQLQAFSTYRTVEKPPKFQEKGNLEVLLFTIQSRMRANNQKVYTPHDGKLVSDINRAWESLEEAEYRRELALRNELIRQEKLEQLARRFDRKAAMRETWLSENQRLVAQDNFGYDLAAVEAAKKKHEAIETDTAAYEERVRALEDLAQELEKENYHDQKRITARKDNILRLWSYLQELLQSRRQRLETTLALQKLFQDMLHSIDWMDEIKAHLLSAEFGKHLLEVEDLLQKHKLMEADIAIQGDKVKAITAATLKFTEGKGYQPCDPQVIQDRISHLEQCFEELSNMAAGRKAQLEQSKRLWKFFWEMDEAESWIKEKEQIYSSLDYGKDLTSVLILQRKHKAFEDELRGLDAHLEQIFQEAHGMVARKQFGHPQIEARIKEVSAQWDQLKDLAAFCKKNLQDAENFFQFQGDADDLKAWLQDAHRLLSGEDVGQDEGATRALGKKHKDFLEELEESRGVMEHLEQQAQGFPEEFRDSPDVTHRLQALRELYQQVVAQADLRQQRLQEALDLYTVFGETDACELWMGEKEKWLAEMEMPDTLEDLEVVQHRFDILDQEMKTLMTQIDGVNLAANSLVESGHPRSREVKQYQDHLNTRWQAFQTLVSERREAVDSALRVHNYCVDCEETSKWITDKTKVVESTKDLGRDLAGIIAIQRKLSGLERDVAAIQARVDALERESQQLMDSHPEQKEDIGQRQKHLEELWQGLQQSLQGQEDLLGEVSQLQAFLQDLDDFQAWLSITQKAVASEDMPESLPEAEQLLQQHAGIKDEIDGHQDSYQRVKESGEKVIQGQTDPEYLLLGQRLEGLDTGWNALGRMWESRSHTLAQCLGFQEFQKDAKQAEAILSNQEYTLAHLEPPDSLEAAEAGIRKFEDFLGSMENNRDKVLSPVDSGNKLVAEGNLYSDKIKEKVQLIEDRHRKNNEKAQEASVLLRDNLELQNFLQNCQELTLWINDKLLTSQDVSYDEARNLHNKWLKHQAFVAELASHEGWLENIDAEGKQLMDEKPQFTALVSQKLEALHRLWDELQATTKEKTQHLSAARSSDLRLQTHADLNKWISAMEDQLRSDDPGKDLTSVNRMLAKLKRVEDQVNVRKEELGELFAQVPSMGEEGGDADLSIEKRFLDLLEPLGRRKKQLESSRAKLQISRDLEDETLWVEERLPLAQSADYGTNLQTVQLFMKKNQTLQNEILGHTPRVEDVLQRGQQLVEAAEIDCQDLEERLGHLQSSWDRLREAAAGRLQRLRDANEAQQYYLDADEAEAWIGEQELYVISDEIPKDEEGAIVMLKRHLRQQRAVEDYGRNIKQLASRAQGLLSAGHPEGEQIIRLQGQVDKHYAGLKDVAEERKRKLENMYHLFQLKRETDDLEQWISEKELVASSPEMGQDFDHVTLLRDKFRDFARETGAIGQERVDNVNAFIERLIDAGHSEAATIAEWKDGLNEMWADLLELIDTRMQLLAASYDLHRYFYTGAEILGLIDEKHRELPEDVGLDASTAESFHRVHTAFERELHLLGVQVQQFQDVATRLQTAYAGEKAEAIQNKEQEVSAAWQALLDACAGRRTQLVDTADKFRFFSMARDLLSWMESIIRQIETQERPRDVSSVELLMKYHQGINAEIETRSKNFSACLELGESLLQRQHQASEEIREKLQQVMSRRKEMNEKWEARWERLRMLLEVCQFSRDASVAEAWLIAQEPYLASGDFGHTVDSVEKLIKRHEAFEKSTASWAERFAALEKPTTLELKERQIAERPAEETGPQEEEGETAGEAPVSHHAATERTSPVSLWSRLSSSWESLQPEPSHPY
UniProt O43805: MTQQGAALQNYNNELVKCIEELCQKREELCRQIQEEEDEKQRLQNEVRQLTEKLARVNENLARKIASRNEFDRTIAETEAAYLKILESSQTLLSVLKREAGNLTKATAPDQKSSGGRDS
UniProt P61009: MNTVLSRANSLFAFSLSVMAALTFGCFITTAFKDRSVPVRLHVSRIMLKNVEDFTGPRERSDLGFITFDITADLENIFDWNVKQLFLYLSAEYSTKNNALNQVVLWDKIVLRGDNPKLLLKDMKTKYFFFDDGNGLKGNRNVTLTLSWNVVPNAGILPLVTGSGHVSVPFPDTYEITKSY
UniProt Q5W111: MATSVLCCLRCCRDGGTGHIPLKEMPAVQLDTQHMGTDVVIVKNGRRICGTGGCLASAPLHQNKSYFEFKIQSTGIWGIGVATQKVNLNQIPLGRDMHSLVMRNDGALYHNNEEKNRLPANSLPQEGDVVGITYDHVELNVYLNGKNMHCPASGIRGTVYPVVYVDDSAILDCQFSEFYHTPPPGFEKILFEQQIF
UniProt Q9NRC1: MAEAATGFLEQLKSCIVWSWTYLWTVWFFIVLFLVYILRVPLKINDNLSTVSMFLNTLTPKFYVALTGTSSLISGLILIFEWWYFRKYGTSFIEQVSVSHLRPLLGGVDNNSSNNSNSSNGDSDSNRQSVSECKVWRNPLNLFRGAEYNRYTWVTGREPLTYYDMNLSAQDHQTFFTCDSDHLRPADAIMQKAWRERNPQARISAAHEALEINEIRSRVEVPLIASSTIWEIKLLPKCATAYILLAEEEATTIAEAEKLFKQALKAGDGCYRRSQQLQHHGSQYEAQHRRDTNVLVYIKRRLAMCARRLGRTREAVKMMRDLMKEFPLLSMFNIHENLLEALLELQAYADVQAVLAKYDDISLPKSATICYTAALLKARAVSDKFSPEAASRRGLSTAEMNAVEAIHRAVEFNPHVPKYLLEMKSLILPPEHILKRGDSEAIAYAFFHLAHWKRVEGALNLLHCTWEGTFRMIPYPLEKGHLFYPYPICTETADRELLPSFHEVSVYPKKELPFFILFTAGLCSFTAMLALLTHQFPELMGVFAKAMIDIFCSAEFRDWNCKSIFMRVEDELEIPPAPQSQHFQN
UniProt P50502: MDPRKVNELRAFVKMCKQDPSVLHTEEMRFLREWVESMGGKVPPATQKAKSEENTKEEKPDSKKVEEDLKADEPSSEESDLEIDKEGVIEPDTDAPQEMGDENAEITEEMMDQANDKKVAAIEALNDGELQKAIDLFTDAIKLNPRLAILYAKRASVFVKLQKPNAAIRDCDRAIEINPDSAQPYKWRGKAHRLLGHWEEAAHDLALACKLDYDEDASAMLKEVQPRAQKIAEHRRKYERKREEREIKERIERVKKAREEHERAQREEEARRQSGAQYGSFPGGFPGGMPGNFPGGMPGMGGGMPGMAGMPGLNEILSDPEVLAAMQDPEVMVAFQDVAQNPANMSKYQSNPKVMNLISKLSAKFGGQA

The list shows a part of the results.
Each target was assayed with Cc1cc(SCc2sc(-c3ccc(C(F)(F)F)cc3)nc2C)ccc1OCC(=O)O (assay: log2 fold change, soluble protein after heating vs DMSO (PISA); higher = thermal stabilisation; K562 cells, 10 uM, 30 min; active = over 0.2 and 3.5 SD of the protein, either way, in both replicates (recomputed)).
How it was run: (§1)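 K562 cells at 2×10^6 cells/mL were exposed to 10 μM compound for 30 min, then aliquots were heated for 3 min across 48°C-58°C, pooled, and extracted in PBS containing 0.5% NP-40 at 4°C. The supernatant after 21,000xg for 90 min was taken as soluble protein and measured by TMTpro 16plex LC-MS/MS with channel sums equalised. Thermal stability is reported relative to control samples, with values from duplicates. Fold changes are given on a log2 scale.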
For SSBP1 (UniProt Q04837), the log2 fold change was inactive: -0.011. STAMBP (UniProt O95630) was tested, and the log2 fold change was inactive: 0.079. With SPC25 (UniProt Q9HBM1) the log2 fold change was inactive: 0.086. For SRRM1 (UniProt Q8IYB3), the log2 fold change was inactive: -0.03. In the case of SSR1 (UniProt P43307), the log2 fold change is reported as inactive: -0.01. SRRT (UniProt Q9BXP5) was tested, and the log2 fold change was inactive: 0.187. For STK11 (UniProt Q15831), the log2 fold change was inactive: 0.05. For SPTA1 (UniProt P02549), the log2 fold change was inactive: 0.135. With SPTAN1 isoform 2 (UniProt Q13813) the log2 fold change was inactive: -0.031. For SRP9 (UniProt P49458), the log2 fold change was inactive: -0.004. For SPN (UniProt P16150), the log2 fold change was inactive: -0.138. With SPTLC2 (UniProt O15270) the log2 fold change was inactive: 0. With SRGN (UniProt P10124) the log2 fold change was inactive: -0.071. In the case of SRPK1 (UniProt Q96SB4), the log2 fold change is reported as inactive: 0.064. With SPG7 (UniProt Q9UQ90) the log2 fold change was inactive: 0.028. In the case of SRP19 (UniProt P09132), the log2 fold change is reported as inactive: 0.096. With SPRY4 (UniProt Q9C004) the log2 fold change was inactive: 0. In the case of SPC24 (UniProt Q8NBT2), the log2 fold change is reported as inactive: 0.043. With STAU1 (UniProt O95793) the log2 fold change was inactive: 0.066. SRP14 (UniProt P37108) was tested, and the log2 fold change was inactive: -0.005. SRSF5 (UniProt Q13243) was tested, and the log2 fold change was inactive: 0.042. SRM (UniProt P19623) was tested, and the log2 fold change was inactive: 0.028. For STIP1 isoform 2 (UniProt P31948), the log2 fold change was inactive: -0.009. In the case of SPATA5 (UniProt Q8NB90), the log2 fold change is reported as inactive: -0.051. STAG2 (UniProt Q8N3U4) was tested, and the log2 fold change was inactive: 0.007. For SQLE (UniProt Q14534), the log2 fold change was inactive: -0.001. For SPARC (UniProt P09486), the log2 fold change was inactive: -0.022. SPTB isoform 2 (UniProt P11277) was tested, and the log2 fold change was inactive: 0.212. For STAM (UniProt Q92783), the log2 fold change was inactive: -0.08. For SSNA1 (UniProt O43805), the log2 fold change was inactive: -0.102. For SPNS1 (UniProt Q9H2V7), the log2 fold change was inactive: -0.043. With SPCS3 (UniProt P61009) the log2 fold change was inactive: -0.029. In the case of SPRYD7 (UniProt Q5W111), the log2 fold change is reported as inactive: -0.053. With ST7 (UniProt Q9NRC1) the log2 fold change was inactive: -0.014. With SPTBN2 (UniProt O15020) the log2 fold change was inactive: 0.079. SPIN1 (UniProt Q9Y657) was tested, and the log2 fold change was inactive: 0.007. With SPCS1, A0A5F9YFS9 the log2 fold change was inactive: 0.036. With ST13 (UniProt P50502) the log2 fold change was inactive: 0.032.

The targets below were run with Cc1ccc(-n2nc(C(C)(C)C)cc2NC(=O)Nc2ccc(OCCN3CCOCC3)c3ccccc23)cc1 [doramapimod] in the same assay as above.
How it was run: as §1
For SSBP1 (UniProt Q04837), the log2 fold change was inactive: 0.037. With STAMBP (UniProt O95630) the log2 fold change was inactive: -0.042. In the case of SPC25 (UniProt Q9HBM1), the log2 fold change is reported as inactive: -0.008. For SRRM1 (UniProt Q8IYB3), the log2 fold change was inactive: 0.126. With SSR1 (UniProt P43307) the log2 fold change was inactive: 0.01. SRRT (UniProt Q9BXP5) was tested, and the log2 fold change was inactive: -0.023. In the case of STK11 (UniProt Q15831), the log2 fold change is reported as inactive: -0.07. In the case of SPTA1 (UniProt P02549), the log2 fold change is reported as inactive: 0.195. SPTAN1 isoform 2 (UniProt Q13813) was tested, and the log2 fold change was inactive: 0.042. SRP9 (UniProt P49458) was tested, and the log2 fold change was inactive: 0.215. SPN (UniProt P16150) was tested, and the log2 fold change was inactive: -0.023. With SPTLC2 (UniProt O15270) the log2 fold change was inactive: 0.043. With SRGN (UniProt P10124) the log2 fold change was inactive: 0.061. In the case of SRPK1 (UniProt Q96SB4), the log2 fold change is reported as inactive: 0.325. In the case of SPG7 (UniProt Q9UQ90), the log2 fold change is reported as inactive: -0.036. In the case of SRP19 (UniProt P09132), the log2 fold change is reported as inactive: -0.081. With SPRY4 (UniProt Q9C004) the log2 fold change was inactive: -0.005. With SPC24 (UniProt Q8NBT2) the log2 fold change was inactive: 0.054. In the case of STAU1 (UniProt O95793), the log2 fold change is reported as inactive: 0.228. With SRP14 (UniProt P37108) the log2 fold change was inactive: 0.195. For SRSF5 (UniProt Q13243), the log2 fold change was inactive: 0.204. In the case of SRM (UniProt P19623), the log2 fold change is reported as inactive: 0.029. For STIP1 isoform 2 (UniProt P31948), the log2 fold change was inactive: -0.036. In the case of SPATA5 (UniProt Q8NB90), the log2 fold change is reported as inactive: 0.002. For STAG2 (UniProt Q8N3U4), the log2 fold change was inactive: -0.041. With SQLE (UniProt Q14534) the log2 fold change was inactive: 0.029. SPARC (UniProt P09486) was tested, and the log2 fold change was inactive: -0.035. For SPTB isoform 2 (UniProt P11277), the log2 fold change was inactive: 0.081. With STAM (UniProt Q92783) the log2 fold change was inactive: 0.018. In the case of SSNA1 (UniProt O43805), the log2 fold change is reported as inactive: -0.007. SPNS1 (UniProt Q9H2V7) was tested, and the log2 fold change was inactive: 0.024. In the case of SPCS3 (UniProt P61009), the log2 fold change is reported as inactive: -0.029. With SPRYD7 (UniProt Q5W111) the log2 fold change was inactive: 0.039. In the case of ST7 (UniProt Q9NRC1), the log2 fold change is reported as inactive: 0.072. With SPTBN2 (UniProt O15020) the log2 fold change was inactive: 0.014. For SPIN1 (UniProt Q9Y657), the log2 fold change was inactive: -0.026. With SPCS1, A0A5F9YFS9 the log2 fold change was inactive: 0.024. ST13 (UniProt P50502) was tested, and the log2 fold change was inactive: -0.015.

From the supplement of paper PMC10849652
